Measurements reported in US12329754B2 (priority 2018, dated 2025).
Counter-ions that a name gives are not always drawn. At least one structure is not confirmed: it was looked up by name or label, or the drawing left a doubt.

The chains behind the UniProt entries cited, without tags or fusion partners. Residues count along the entry.
UniProt Q05320, 502-676 partner limits assumed: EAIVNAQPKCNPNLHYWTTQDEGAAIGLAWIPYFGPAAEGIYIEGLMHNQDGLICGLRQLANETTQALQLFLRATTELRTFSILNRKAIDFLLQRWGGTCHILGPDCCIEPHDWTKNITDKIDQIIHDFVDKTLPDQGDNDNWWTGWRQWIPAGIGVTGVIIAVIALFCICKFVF
UniProt Q05320, 54-201 limits assumed: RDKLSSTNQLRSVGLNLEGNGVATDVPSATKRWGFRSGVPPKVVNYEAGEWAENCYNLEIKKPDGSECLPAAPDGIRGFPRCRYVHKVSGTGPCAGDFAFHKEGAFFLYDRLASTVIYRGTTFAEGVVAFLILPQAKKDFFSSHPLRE

Assays:
[1] = test system: EBOV-Zaire GP/HIV-luc pseudovirus; format: cell-based, Zaire ebolavirus
[2] = test system: EBOV-Zaire GP/HIV-luc pseudovirus; format: cell-based, Zaire ebolavirus; remark: listed apart in the source
[3] = target: primed glycoprotein of the Ebola virus (EBOV-GPcl) (Zaire ebolavirus, UniProt Q05320); format: binding
[4] = test system: VSV-G/HIV-luc pseudovirus; format: cell-based, vesicular stomatitis virus

| SMILES | selective inhibition effect (EBOV-Zaire GP/HIV-luc versus VSV-G/HIV-luc), positive control [1] | action time in TOA experiment, compared with berbamine dihydrochloride [2] | binding to the GPcl protein (BLI kinetic curves) [3] | inhibition of the activity of the EBOV-Zaire GP/HIV-luc pseudovirus, dose dependence [1] | inhibition effect at the early stage of viral entry (TOA) [2] | inhibition effect on virus infection after the virus completed the adsorption process (TOA) [2] | inhibition effect on the VSV-G/HIV-luc pseudovirus [4] |
| --- | --- | --- | --- | --- | --- | --- | --- |
| COc1ccc2cc1Oc1ccc(cc1)C[C@H]1c3cc(c(OC)cc3CCN1C)Oc1c(OC)c(OC)cc3c1[C@H](C2)N(C)CC3 [tetrandrine, reference compound] | selective inhibition effect similar to that of berbamine dihydrochloride | consistent with the action time |  |  |  |  |  |
| COc1cc2c3cc1Oc1c(OC)c(OC)cc4c1[C@@H](Cc1ccc(O)c(c1)Oc1ccc(cc1)C[C@@H]3N(C)CC2)N(C)CC4 [berbamine dihydrochloride] |  |  | could bind to the GPcl protein | significantly inhibited | very strong inhibition effect | no inhibition effect | almost no inhibition effect |
